PubChem BioAssay AID2685 (National Center for Advancing Translational Sciences (NCATS), 2010)
The other results are listed elsewhere or left out. These are further read-outs of the screen, such as a control signal, another cell line or another target. No call is given for them. The list favours compounds with an active or inconclusive main result. The note in brackets gives the kind of curve behind each potency; many fits are weak.

Experiment: qHTS Assay for Lipid Storage Modulators in Drosophila S3 Cells;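 on cell number change: cells counted by Cell Tracker Red CMTPX staining in the red channel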
Conditions: BODIPY lipid droplet fluorescence, 18-24 h; for cell number change: measured here: cell count max response, cells fed with added oleic acid
Outline: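 Drosophila S3 cells loaded with oleic acid (400 uM, as added) and compounds at several concentrations; lipid droplets imaged by 488-nm laser-scanning cytometry, 500–530 nm intensity and object ratio to cell channel. Percent activity normalized to 20 uM Triacsin C.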

[1] = measured here: lipid fluorescence (Fed channel) AC50, cells fed with added oleic acid
[2] = measured here: cell number channel AC50, cells fed with added oleic acid

Structure (SMILES)	cell number change [%]	AC50 [1]	AC50 [2]
O=C(Nc1ccccc1F)NC1CCN(Cc2nnnn2Cc2ccc(F)cc2)CC1	19.2	18.4 µM [rising, single point]	
O=C(N/N=C/c1ccccc1O)c1cc(=O)[nH]c2ccccc12	-12.1	18.4 µM [falling, partial curve]	
Cc1cc(C)n2nc(C(=O)N/N=C/c3c4ccccc4cc4ccccc34)nc2n1	-49.1	6.51 µM [falling, partial curve]	9.2 µM [falling, partial curve]
COCCn1c(SCC(=O)NC(=O)NC(C)(C)C)nc2ccccc21			0.58 µM [rising, full curve]
Nc1ncc([N+](=O)[O-])c(N2CCCCCC2)n1	1.68		
Cc1ccc(S(=O)(=O)N2CCSC2c2ccco2)cc1 (stereo unspecified)	0.48	0.00517 µM [falling, full curve, poor fit]	
O=c1c(Cl)c(N/N=C/c2ccc(Br)cc2)cnn1-c1ccccc1	-45.6		5.8 µM [falling, partial curve, poor fit]
O=C(CSc1nnc(-c2ccncc2)o1)NCc1ccc(Cl)cc1	11.7	0.92 µM [rising, full curve, poor fit]	
Cc1cccc(COc2ccccc2C(=O)OCC(=O)N(C)c2c(N)n(Cc3ccccc3)c(=O)[nH]c2=O)c1	-55.7	6.51 µM [falling, full curve, poor fit]	14.6 µM [falling, partial curve]
CCO[C@@H]1OC(C(=O)NCc2ccccc2)=C[C@H](C)[C@H]1CCCO	-11.7	13 µM [falling, partial curve, poor fit]	
COc1cc(/C=N/NC(=O)CCc2ccccc2)ccc1O		23.1 µM [rising, single point]	
CC(C)(C)C1CCc2c(sc(NC(=O)CSc3nnc(-c4ccccc4)o3)c2C#N)C1 (stereo unspecified)		3.26 µM [falling, partial curve]	
CN(C)c1oc(-c2ccccc2Cl)nc1P(=O)(c1ccccc1)c1ccccc1	-1.06		
COc1ccc(C2C(C(=O)c3ccco3)=C(O)C(=O)N2CCN2CCOCC2)c(OC)c1 (stereo unspecified)	55.1		11.6 µM [rising, partial curve, poor fit]
CCOCC(=O)Nc1ccc(S(=O)(=O)N2CCOCC2)cc1	-3.2	29.1 µM [falling, partial curve]	
CCNC(=O)CC1SC(=Nc2cccc3ccccc23)N(C)C1=O (stereo unspecified)	-5.98	3.26 µM [falling, single point]	3.26 µM [falling, single point]
COc1ccc(C)cc1NC(=O)C1CCCN1C(=O)OCc1ccccc1 (stereo unspecified)	56.5	3.66 µM [rising, full curve]	29.1 µM [rising, single point]
COc1cccc(C(=O)Nc2ccccc2)c1	10.7	25.9 µM [falling, single point]	
Cc1cc(C)nc(NC(=O)c2cc(-c3ccc4c(c3)OCO4)nc3ccccc23)c1	-23.5	0.58 µM [rising, single point]	
N#C/C(=C\c1cn(CC(=O)N2CCCC2)c2ccccc12)C(=O)NCc1ccc2c(c1)OCO2	1.71		

Structure (SMILES)	cell number change [%]	AC50 [1]	AC50 [2]
Cc1cs/c(=N\N=C2CCCCC2)n1Cc1ccco1	71.4	7.31 µM [rising, partial curve]	13 µM [rising, partial curve]
COc1ccc(CN2CCS(=O)(=O)CC2)cc1OC	-20.2		
CCCn1c(SCC(=O)NCC(=O)Nc2ccc(F)c(F)c2F)nc2ccccc2c1=O	21	1.46 µM [falling, partial curve, poor fit]	
CCOc1ccc(N(CC(=O)N2CCN(c3ccccc3F)CC2)S(=O)(=O)c2c(C)noc2C)cc1	14.2	29.1 µM [rising, partial curve]	
Cc1ccc(S(=O)(=O)c2nc(-c3cccs3)oc2NCc2cccnc2)cc1	-20.3		
CCOc1ccc(CCNC(=O)c2cccc(S(=O)(=O)N3CC(C)OC(C)C3)c2)cc1OCC (stereo unspecified)	-30.5	29.1 µM [falling, single point]	16.4 µM [falling, single point]
CC(Sc1n[nH]c(-c2ccccc2)n1)C(=O)c1c(N)n(C)c(=O)n(C)c1=O (stereo unspecified)	41		7.31 µM [rising, partial curve, poor fit]
Cc1c(C)c2ccc(OCC(=O)N3CCC(C(=O)O)CC3)cc2oc1=O	31.7	29.1 µM [rising, single point]	25.9 µM [rising, single point]
CC(=O)Nc1ccc(S(=O)(=O)N2CCC(NC(=O)C(Cc3ccccc3F)NC(C)=O)CC2)cc1 (stereo unspecified)	5.24	32.6 µM [rising, single point]	
S=c1[nH]c(-c2ccccc2)cn1/N=C/c1ccccc1Br	53.4		16.4 µM [rising, single point]
C=CCn1cc(CN2CCC(C(=O)Nc3cccc(-c4cccc(Cl)c4)c3)CC2)c(C)n1		6.51 µM [rising, single point]	
CC1CCN(C(=O)COc2ccccc2F)CC1	3.23	6.51 µM [rising, single point]	
COc1ccc(C(=O)N2CCNC(=O)C2CC(=O)Nc2ccc(C)cc2)cc1 (stereo unspecified)	2.26	0.731 µM [rising, full curve]	1.3 µM [rising, full curve, poor fit]
CCOc1cc(C(=O)N2CCN(c3ccccc3)CC2)cc(OCC)c1OCC	83.5	6.51 µM [rising, single point]	14.6 µM [rising, partial curve]
COc1ccc(C2=Nn3c([n+](C)c4ccccc43)SC2)cc1	-53.5	8.2 µM [falling, partial curve]	16.4 µM [falling, single point]
Cc1c(NC(=O)Nc2ccccc2Cl)sc(=S)n1C	-1.54	11.6 µM [rising, partial curve]	
Cc1sc2ncnc(Oc3ccc(-n4ccnc4)cc3)c2c1C	-11.2	4.11 µM [rising, full curve]	
O=C(Nc1ccc(Cn2ccnc2)cc1)c1cccc(C(F)(F)F)c1	-22.3	6.51 µM [rising, single point]	
CCOC(=O)C1CCCN(C(=O)CSc2nccn2C)C1 (stereo unspecified)	0.852	0.58 µM [falling, single point]	
C=C1CCc2c([nH]c3ccc(OCC(C)C)cc23)C1=O	-49.6	8.2 µM [falling, partial curve]	10.3 µM [falling, partial curve]

Structure (SMILES)	cell number change [%]	AC50 [1]	AC50 [2]
CCN(CC)CCN1C(=O)c2oc3ccccc3c(=O)c2C1c1cccc(Br)c1 (stereo unspecified)	-3.17	29.1 µM [rising, single point]	
CCOC(=O)Cc1csc(NC(=O)c2c(-c3c(F)cccc3Cl)noc2C)n1	5.61	6.51 µM [rising, single point]	
COc1ccccc1/C=C/CN1CC(C)OC(C)C1 (stereo unspecified)	10	14.6 µM [rising, single point]	
C=CCNc1nc(Cl)nc(NC2CCCCC2)n1	14.7	0.58 µM [rising, single point]	
O=C(/C=C/c1ccc(Cl)cc1)Nc1ccc(N2CCCCC2)cc1		0.651 µM [falling, single point]	
Cc1c(NC(=O)c2cc(-c3ccc4c(c3)OCO4)on2)c(=O)n(-c2ccccc2)n1C	-0.703	25.9 µM [falling, single point]	
O=S(=O)(NCC(O)c1ccccc1)c1ccc(-c2ccccn2)s1 (stereo unspecified)	-52.6	29.1 µM [falling, single point]	29.1 µM [falling, single point]
O=C(Nc1ccc(C(F)(F)F)cc1)c1csc(-c2ccncc2)n1	8.25	0.0103 µM [rising, full curve, poor fit]	
Cc1ccc(-c2nnc3sc(C4COc5ccccc5O4)nn23)cc1 (stereo unspecified)	1.83	18.4 µM [falling, single point]	
O=C(N/C(=C/c1cn(-c2ccccc2)nc1-c1ccccc1)C(=O)N1CCOCC1)c1ccc(Cl)cc1Cl		1.03 µM [rising, full curve]	
Cc1ccc(-c2nnc(-c3ccccc3Br)o2)cc1	14.6		
CCOC(=O)CCC(=O)N1CCOCCOCCN(C(=O)CCC(=O)OCC)CCOCCOCC1	18.6	0.58 µM [falling, single point]	
CSCCC(NC(=O)c1ccccc1Cl)C(=O)N1CCCCC1 (stereo unspecified)	22.6	6.51 µM [rising, partial curve]	
COC(=O)c1ccccc1NC(=O)c1nc2nc(C)cc(C(F)F)n2n1	8.79	0.82 µM [rising, full curve]	
O=C(Nc1cccc2ncccc12)c1cccc(Br)c1	9.01		
Cc1cccc(C(=O)NCCNC(=O)c2ccccn2)c1			6.51 µM [rising, single point]
C[C@H](NC(=O)OC(C)(C)C)c1nnc(SCC(=O)Nc2cccc(Cl)c2)o1	-16.1	0.103 µM [falling, full curve, poor fit]	
CC(=O)Nc1ccc(OC(F)(F)C(F)C(F)(F)F)c(NC(C)=O)c1 (stereo unspecified)	21.2	6.51 µM [rising, single point]	
Cc1ccc(C)c(NS(=O)(=O)c2cc(C(=O)NCc3ccco3)ccc2C)c1	11.1	0.366 µM [rising, full curve]	

Rewritten in markdown: part of the list above.

| Structure (SMILES) | cell number change [%] | AC50 [1] | AC50 [2] |
| --- | --- | --- | --- |
| Cc1ccc(S(=O)(=O)N2CCSC2c2ccco2)cc1 (stereo unspecified) | 0.48 | 0.00517 µM [falling, full curve, poor fit] |  |
| O=c1c(Cl)c(N/N=C/c2ccc(Br)cc2)cnn1-c1ccccc1 | -45.6 |  | 5.8 µM [falling, partial curve, poor fit] |
